Data as given in PubChem BioAssay AID1508588 (Peter MacCallum Cancer Centre, 2020)

Purpose: 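Which gene losses make BRAF-mutant melanoma cells more responsive to vemurafenib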 (primary screen)
Cell system: human WM266.4 melanoma cells (BRAF V600 mutant)
Reagents: siRNA pool against human genes, 40 nM
Duration: 96 h from transfection to read-out
Challenge: vemurafenib 300 nM (about IC25), added 48 h after transfection, for 48 h; comparison arm got DMSO vehicle only
Measurement: 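Ratios to non-targeting siRNA for cell gain, counted as DAPI nuclei after minus before drug and averaged over two replicates, and for absorbance-read medium lactate per cell; both binned into fold-change classes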
Scale: cell gain with vemurafenib: higher = more cell gain than with non-targeting siRNA; lactate per cell with vemurafenib: higher = more lactate made per cell
Rule for the call: 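Enhancement is called by pairing each knock-down's vehicle-arm and drug-arm fold-change classes for viability or glycolysis; which class combinations qualify is not given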
Meaning of the calls: active = enhances vemurafenib effect; inactive = no enhancement seen
This is an unselected part of about 18,000 reagents tested. Over the whole deposit, 790 (4.4%) were called active. 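Calls rest on a combination of fold-change classes in drug and vehicle arms, not all shown here.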 Entries without a mark were called inactive. The numbers tell different reagents against one gene apart.

Gene	reagent no.	cell gain with vemurafenib	lactate per cell with vemurafenib
ZNF24 (zinc finger protein 24)	1	0.94	0.6
DFFB (DNA fragmentation factor subunit beta)	1	0.58	1.4
IL18R1 (interleukin 18 receptor 1)	1	0.45	0.62
LIN7A (lin-7 cell polarity scaffold A)	1	0.97	0.6
SLC66A2	1	0.78	1.25
NMB (neuromedin B)	1	0.93	0.55
ZNF540 (zinc finger protein 540)	1	0.92	0.66
SMOC1 (SPARC related modular calcium binding 1)	1	1.37	0.53
ZNF208 (zinc finger protein 208)	1	0.78	1.25
SLC36A4	1	0.92	0.77
TMEM143 (transmembrane protein 143)	1	0.65	1.12
ZNF711 (ZFX family zinc finger ZNF711)	1	0.53	0.7
ALPK1 (alpha kinase 1)	1	0.07	1.16
SMAD9 (SMAD family member 9)	1	0.51	0.88
CREG1 (cellular repressor of E1A stimulated genes 1)	1	0.35	1.25
DERL3 (derlin 3)	1	0.42	1.4
SLC35A2	1	0.33	2.04
SNX6 (sorting nexin 6)	1	0.36	0.2
FAM216B (family with sequence similarity 216 member B)	1	0.94	1.08
AOC3 (amine oxidase copper containing 3)	1	0.46	0.73
CDH18 (cadherin 18)	1	0.84	0.98
PDHX (pyruvate dehydrogenase complex component X)	1	0.68	0.55
C5orf24 (chromosome 5 open reading frame 24)	1	0.75	0.74
FAM227B (family with sequence similarity 227 member B)	1	0.92	0.8
NAP1L2 (nucleosome assembly protein 1 like 2)	1	0.72	2.25
ZNF253 (zinc finger protein 253)	1	0.88	0.24
COL27A1 (collagen type XXVII alpha 1 chain)	1	0.86	0.37
ADGRL2 (adhesion G protein-coupled receptor L2)	1	0.15	2.47
AGMO (alkylglycerol monooxygenase)	1	0.49	2.43
GPRASP1 (G protein-coupled receptor associated sorting protein 1)	1	0.34	0.69
LRWD1 (leucine rich repeats and WD repeat domain containing 1)	1	0.8	0.51
CABYR (calcium binding tyrosine phosphorylation regulated)	1	0.46	1.12
URI1 (URI1 prefoldin like chaperone)	1	0.61	2.03
GPR15 (G protein-coupled receptor 15)	1	0.63	1.14
MTCL1 (microtubule crosslinking factor 1)	1	1.07	1.03
FIZ1 (FLT3 interacting zinc finger 1)	1	1.01	1.33
ACSL1 (acyl-CoA synthetase long chain family member 1)	1	0.59	1.75
MYDGF (myeloid derived growth factor)	1	0.73	0.62
EPS8 (EGFR pathway substrate 8, signaling adaptor)	1	0.97	0.5
UTP6 (UTP6 small subunit processome component)	1	1.25	0.4
VN1R5 (vomeronasal 1 receptor 5 (gene/pseudogene))	1	0.82	0.6
XCL2 (X-C motif chemokine ligand 2)	1	0.61 (active)	0.66
TPRN (taperin)	1	0.38	0.47
PEX10 (peroxisomal biogenesis factor 10)	1	0.77	0.7
SPANXC (SPANX family member C)	1	-0.11	3.34
MPC2	1	0.66	0.46
DNAJC8 (DnaJ heat shock protein family (Hsp40) member C8)	1	0.44	0.94
COG7 (component of oligomeric golgi complex 7)	1	0.68	0.96
PABIR2 (PABIR family member 2)	1	1.01	0.98
TTC12 (tetratricopeptide repeat domain 12)	1	0.35	0.42
PTK2B (protein tyrosine kinase 2 beta)	1	0.31	1.07
MYADM (myeloid associated differentiation marker)	1	0.72	1.12
CELF4 (CUGBP Elav-like family member 4)	1	1.03	0.88
TMCO6 (transmembrane and coiled-coil domains 6)	1	0.46	0.88
ERLIN2 (ER lipid raft associated 2)	1	0.46	0.54
PTPN18 (protein tyrosine phosphatase non-receptor type 18)	1	0.76	0.91
GNRHR (gonadotropin releasing hormone receptor)	1	1.15	0.7
EIF4A1 (eukaryotic translation initiation factor 4A1)	1	0.27	0.62
FBLN1 (fibulin 1)	1	0.68	1.06
RSPH14 (radial spoke head 14 homolog)	1	0.6	1.36
C12orf76 (chromosome 12 open reading frame 76)	1	0.24	1.8
ARHGEF12 (Rho guanine nucleotide exchange factor 12)	1	0.25	0.77
OR6C2 (olfactory receptor family 6 subfamily C member 2)	1	0.35	1.14
NPSR1 (neuropeptide S receptor 1)	1	0.7	0.83
GDF5 (growth differentiation factor 5)	1	0.33	2.25
IL17RD (interleukin 17 receptor D)	1	0.13 (active)	0.04
GCNT2 (glucosaminyl (N-acetyl) transferase 2 (I blood group))	1	1.17	0.73
BPNT2 (3'(2'), 5'-bisphosphate nucleotidase 2)	1	0.56	0.44
RNF213 (ring finger protein 213)	1	0.58	1.13
RNF213 (ring finger protein 213)	2	0.68	0.82
A2ML1 (alpha-2-macroglobulin like 1)	1	0.87	0.94
NPAS3 (neuronal PAS domain protein 3)	1	0.54	0.6
H3C12 (H3 clustered histone 12)	1	0.32	1.11
OTOP1 (otopetrin 1)	1	0.4	1.1
MYH13 (myosin heavy chain 13)	1	0.57	1.31
RMND5B (required for meiotic nuclear division 5 homolog B)	1	0.69	1.14
PSMA2 (proteasome 20S subunit alpha 2)	1	-0.2	3.14
CABS1 (calcium binding protein, spermatid associated 1)	1	0.47	1.48
OR1N1 (olfactory receptor family 1 subfamily N member 1)	1	0.17	1.27
ETNPPL (ethanolamine-phosphate phospho-lyase)	1	0.32	1.2
TH (tyrosine hydroxylase)	1	1.16	1.08
SVEP1	1	1.01	0.42
VSIG4 (V-set and immunoglobulin domain containing 4)	1	0.69	0.69
CDK10 (cyclin dependent kinase 10)	1	0.57	1.2
CCNT1 (cyclin T1)	1	0.9	0.8
NDUFS7 (NADH:ubiquinone oxidoreductase core subunit S7)	1	0.59	1.95
AHSG (alpha 2-HS glycoprotein)	1	0.78	1
ADAM8 (ADAM metallopeptidase domain 8)	1	0.2	1.57
ZNF329 (zinc finger protein 329)	1	0.58	0.8
SPRR2A (small proline rich protein 2A)	1	1.04	0.22
BORCS6 (BLOC-1 related complex subunit 6)	1	-0.1	3.29
AGBL5 (AGBL carboxypeptidase 5)	1	0.51	1.09
ZBTB4 (zinc finger and BTB domain containing 4)	1	0.62	1.62
EPHB3 (EPH receptor B3)	1	0.46	1.48
ZFAND5 (zinc finger AN1-type containing 5)	1	0.99	0.9
STPG4 (sperm-tail PG-rich repeat containing 4)	1	0.18 (active)	0.91
DEFB134 (defensin beta 134)	1	0.32	1.38
AFF3 (ALF transcription elongation factor 3)	1	1.03	0.63
TMEM167B (transmembrane protein 167B)	1	0.29	1.01
XG (Xg glycoprotein (Xg blood group))	1	0.75	1.18
H4C9 (H4 clustered histone 9)	1	0.4	0.73
NDRG1 (N-myc downstream regulated 1)	1	0.35	1.7
TPH1 (tryptophan hydroxylase 1)	1	1	0.57
BUD31 (BUD31 spliceosome associated protein)	1	0.95	0.38
TRPV6	1	0.75	1.18
DLGAP1-AS1 (DLGAP1 antisense RNA 1)	1	1.14	0.42
KANK2 (KN motif and ankyrin repeat domains 2)	1	0.24	2.1

Entries above whose target name starts with X or x (2):
Gene	reagent no.	cell gain with vemurafenib	lactate per cell with vemurafenib
XCL2 (X-C motif chemokine ligand 2)	1	0.61 (active)	0.66
XG (Xg glycoprotein (Xg blood group))	1	0.75	1.18
